Measured data: PubChem BioAssay AID1259267 (Sanger Institute, 2017)

- Aim: 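Essential and drug-synergistic knock-downs in GP5D bowel cancer cells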 (primary screen)
- Cell system: human GP5D colorectal cancer cells
- Reagents: siRNA pool against human genes
- Conditions: anchor drugs at low dose: BYL719 1 µM, cetuximab 5 µg/ml, trametinib 10 nM, or DMSO vehicle
- Read-out: 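Mean replicate viability versus non-targeting pool, given as knock-down-alone robust z-score, DMSO fraction, and synergy with low-dose BYL719, cetuximab or trametinib (1 µM, 5 µg/ml, 10 nM)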
- Direction: robust z-score, knock-down alone: higher = more viable cells
- Active means: 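Active (essential alone) if knock-down without drug gives robust z-score under -3; drug synergy does not count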
- Meaning of the calls: active = essential alone; inactive = not essential
This is an unselected part of 794 deposited reagents. Over the whole deposit, 9 (1.1%) are marked active. 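Viability capped at 1; calls reflect loss of viability from knock-down alone, not synergy with drugs.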 Entries without a mark were called inactive. Not all columns of the deposit are shown. Reagent sequences are not shown. Not given: the amount of reagent, the time to read-out.

The opening 2 records, ahead of the listing:
{"gene": "EPHA10 (EPH receptor A10)", "robust z-score, knock-down alone": -0.749}
{"gene": "PFKFB4 (6-phosphofructo-2-kinase/fructose-2,6-biphosphatase 4)", "robust z-score, knock-down alone": -0.433}

Results, from the first entry:
{"gene": "EPHA10 (EPH receptor A10)", "robust z-score, knock-down alone": -0.749}
{"gene": "PFKFB4 (6-phosphofructo-2-kinase/fructose-2,6-biphosphatase 4)", "robust z-score, knock-down alone": -0.433}
{"gene": "TTBK2 (tau tubulin kinase 2)", "robust z-score, knock-down alone": -1.59}
{"gene": "CSNK1G1 (casein kinase 1 gamma 1)", "robust z-score, knock-down alone": -2.56}
{"gene": "CDK5 (cyclin dependent kinase 5)", "robust z-score, knock-down alone": 0.671}
{"gene": "CAMK2D (calcium/calmodulin dependent protein kinase II delta)", "robust z-score, knock-down alone": 0.817}
{"gene": "SCYL3 (SCY1 like pseudokinase 3)", "robust z-score, knock-down alone": 0.175}
{"gene": "ADCK5 (aarF domain containing kinase 5)", "robust z-score, knock-down alone": 0.259}
{"gene": "UCKL1 (uridine-cytidine kinase 1 like 1)", "robust z-score, knock-down alone": 0.817}
{"gene": "PIP5K1B (phosphatidylinositol-4-phosphate 5-kinase type 1 beta)", "robust z-score, knock-down alone": 0.817}
{"gene": "ACVR2A (activin A receptor type 2A)", "robust z-score, knock-down alone": -0.244}
{"gene": "SRMS", "robust z-score, knock-down alone": 0.817}
